Test results as given in the supplement of paper PMC6411743.
± gives the standard deviation of the averaged measurements. Some of the results follow.

By UniProt entry, the sequences of proteins in these tests, tags left out. Where a name states a change or a piece, a line headed by the entry shows the natural chain unless it says otherwise.
UniProt Q14157: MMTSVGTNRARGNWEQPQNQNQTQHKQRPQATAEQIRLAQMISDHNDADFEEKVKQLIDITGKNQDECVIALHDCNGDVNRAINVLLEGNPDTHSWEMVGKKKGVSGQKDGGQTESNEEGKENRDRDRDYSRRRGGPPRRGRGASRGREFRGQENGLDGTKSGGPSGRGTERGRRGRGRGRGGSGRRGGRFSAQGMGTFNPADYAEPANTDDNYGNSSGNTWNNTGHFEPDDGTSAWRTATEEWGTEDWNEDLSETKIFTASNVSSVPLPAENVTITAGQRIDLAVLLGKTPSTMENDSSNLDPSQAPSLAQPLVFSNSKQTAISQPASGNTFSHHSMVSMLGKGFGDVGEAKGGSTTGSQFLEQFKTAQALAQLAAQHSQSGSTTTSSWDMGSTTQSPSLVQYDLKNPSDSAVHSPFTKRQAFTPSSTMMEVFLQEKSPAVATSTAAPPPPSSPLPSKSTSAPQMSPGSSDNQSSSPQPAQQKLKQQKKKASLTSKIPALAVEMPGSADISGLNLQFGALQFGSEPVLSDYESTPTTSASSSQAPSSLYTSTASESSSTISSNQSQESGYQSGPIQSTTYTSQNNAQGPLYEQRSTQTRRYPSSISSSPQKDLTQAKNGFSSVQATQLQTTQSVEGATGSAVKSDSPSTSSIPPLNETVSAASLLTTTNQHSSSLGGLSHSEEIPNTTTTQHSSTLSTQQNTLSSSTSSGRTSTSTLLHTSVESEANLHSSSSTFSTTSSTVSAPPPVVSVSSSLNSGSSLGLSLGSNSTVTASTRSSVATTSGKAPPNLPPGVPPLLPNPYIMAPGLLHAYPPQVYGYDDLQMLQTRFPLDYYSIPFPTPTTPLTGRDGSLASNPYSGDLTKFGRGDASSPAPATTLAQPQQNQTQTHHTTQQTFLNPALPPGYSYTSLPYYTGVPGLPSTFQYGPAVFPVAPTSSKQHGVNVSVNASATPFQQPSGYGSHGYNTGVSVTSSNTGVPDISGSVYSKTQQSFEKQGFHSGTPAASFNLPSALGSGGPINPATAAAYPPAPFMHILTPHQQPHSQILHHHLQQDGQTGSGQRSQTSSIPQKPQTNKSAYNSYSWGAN
UniProt Q04864: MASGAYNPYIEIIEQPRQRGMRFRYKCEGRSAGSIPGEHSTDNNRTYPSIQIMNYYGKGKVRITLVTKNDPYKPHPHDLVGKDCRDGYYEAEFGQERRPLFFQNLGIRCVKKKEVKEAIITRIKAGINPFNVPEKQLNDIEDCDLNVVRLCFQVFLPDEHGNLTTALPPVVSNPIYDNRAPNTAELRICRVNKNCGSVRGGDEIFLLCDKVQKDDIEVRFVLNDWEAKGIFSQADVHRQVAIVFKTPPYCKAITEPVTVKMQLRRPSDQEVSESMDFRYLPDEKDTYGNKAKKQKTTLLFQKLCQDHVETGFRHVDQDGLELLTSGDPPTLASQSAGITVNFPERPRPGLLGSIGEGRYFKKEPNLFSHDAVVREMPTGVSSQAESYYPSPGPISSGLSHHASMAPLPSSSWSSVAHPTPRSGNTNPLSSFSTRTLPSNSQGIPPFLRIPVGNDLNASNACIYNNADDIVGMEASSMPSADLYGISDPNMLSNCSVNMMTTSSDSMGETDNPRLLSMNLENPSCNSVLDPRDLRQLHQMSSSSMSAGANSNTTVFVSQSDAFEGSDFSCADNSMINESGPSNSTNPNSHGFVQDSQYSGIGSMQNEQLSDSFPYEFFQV
UniProt Q13885, whole entry: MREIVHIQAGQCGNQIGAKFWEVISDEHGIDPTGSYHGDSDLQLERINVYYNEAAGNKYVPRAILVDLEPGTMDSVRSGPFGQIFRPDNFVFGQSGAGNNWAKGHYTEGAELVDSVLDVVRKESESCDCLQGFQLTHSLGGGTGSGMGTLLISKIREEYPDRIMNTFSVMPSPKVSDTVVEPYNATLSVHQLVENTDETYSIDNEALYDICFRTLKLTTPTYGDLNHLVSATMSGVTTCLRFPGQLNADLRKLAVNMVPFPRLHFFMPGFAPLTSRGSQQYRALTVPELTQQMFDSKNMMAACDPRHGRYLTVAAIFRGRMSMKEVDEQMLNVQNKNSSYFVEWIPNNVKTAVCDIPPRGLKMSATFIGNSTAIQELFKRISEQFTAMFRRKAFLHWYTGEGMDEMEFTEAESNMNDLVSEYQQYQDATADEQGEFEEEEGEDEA
UniProt Q13123, whole entry: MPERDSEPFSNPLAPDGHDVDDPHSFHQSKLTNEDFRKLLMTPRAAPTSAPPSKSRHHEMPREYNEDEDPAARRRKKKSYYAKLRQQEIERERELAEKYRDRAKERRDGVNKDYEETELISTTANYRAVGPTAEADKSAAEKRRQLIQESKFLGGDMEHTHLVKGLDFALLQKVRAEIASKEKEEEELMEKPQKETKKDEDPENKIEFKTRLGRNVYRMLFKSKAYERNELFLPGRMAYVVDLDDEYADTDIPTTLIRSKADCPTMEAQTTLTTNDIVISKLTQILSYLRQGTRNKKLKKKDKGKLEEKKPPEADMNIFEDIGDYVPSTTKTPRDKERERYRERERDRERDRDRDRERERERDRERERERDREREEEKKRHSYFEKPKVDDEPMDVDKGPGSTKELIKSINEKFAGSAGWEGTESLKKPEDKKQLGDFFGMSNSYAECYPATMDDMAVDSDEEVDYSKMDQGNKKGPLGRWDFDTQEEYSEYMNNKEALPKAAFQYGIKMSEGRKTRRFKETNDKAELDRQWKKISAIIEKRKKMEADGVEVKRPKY
UniProt Q13247: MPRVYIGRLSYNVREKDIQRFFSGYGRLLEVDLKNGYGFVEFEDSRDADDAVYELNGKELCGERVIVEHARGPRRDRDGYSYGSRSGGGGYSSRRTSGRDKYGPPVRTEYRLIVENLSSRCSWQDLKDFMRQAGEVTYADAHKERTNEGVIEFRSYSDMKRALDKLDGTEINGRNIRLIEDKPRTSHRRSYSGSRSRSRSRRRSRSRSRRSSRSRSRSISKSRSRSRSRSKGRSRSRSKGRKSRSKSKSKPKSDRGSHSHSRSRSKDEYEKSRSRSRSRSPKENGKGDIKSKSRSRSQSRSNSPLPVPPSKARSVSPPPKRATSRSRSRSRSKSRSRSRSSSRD

Compound: Nc1nc2c(ncn2[C@@H]2O[C@H](COP(=O)(O)OP(=O)(O)OP(=O)(O)O)[C@@H](O)[C@H]2O)c(=O)[nH]1 [guanosine triphosphate]
Experiment: NP40-soluble protein abundance relative to vehicle (solubility fold change) (ratio); higher = more soluble protein in presence of GTP
Experimental: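 Solubility proteome profiling in Jurkat crude lysate. Lysate was treated with Mg-GTP (0.1-10 mM) for 10 min at room temperature and 3 min at 37 °C, then solubilised with 0.8% NP40 and benzonase, followed by ultracentrifugation. Proteins were quantified by TMT10 LC-MS/MS; the value is the NP40-soluble abundance relative to the NP40-processed vehicle, from 3 independent experiments.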

Target	NP40-soluble protein abundance (concentration: 0.1mM)	NP40-soluble protein abundance (concentration: 0.5mM)	NP40-soluble protein abundance (concentration: 1mM)	NP40-soluble protein abundance (concentration: 2mM)	NP40-soluble protein abundance (concentration: 4mM)	NP40-soluble protein abundance (concentration: 6mM)	NP40-soluble protein abundance (concentration: 8mM)	NP40-soluble protein abundance (concentration: 10mM)
UniProt Q14157 and related entries	0.924 ± 0.065	0.926 ± 0.086	0.967 ± 0.06	0.936 ± 0.11	0.937 ± 0.087	1.01 ± 0.1	1.03 ± 0.058	1.02 ± 0.1
UniProt Q04864 and related entries	0.995 ± 0.038	1.01 ± 0.048	0.931 ± 0.038	0.96 ± 0.03	0.955 ± 0.04	0.948 ± 0.022	0.924 ± 0.048	0.893 ± 0.055
UniProt Q13885	0.962 ± 0.19	0.962 ± 0.13	0.98 ± 0.16	0.966 ± 0.17	0.993 ± 0.24	0.916 ± 0.16	0.985 ± 0.19	0.959 ± 0.2
IK (UniProt Q13123)	0.955 ± 0.061	0.966 ± 0.087	1.01 ± 0.05	1 ± 0.079	1.08 ± 0.059	1.14 ± 0.074	1.22 ± 0.074	1.24 ± 0.095
UniProt Q13247 and related entries	0.996 ± 0.035	1.25 ± 0.051	1.34 ± 0.031	1.27 ± 0.047	1.13 ± 0.058	1.28 ± 0.068	1.39 ± 0.065	1.27 ± 0.1
